This note sets out measurements from publication PMC5996148.

Chains of the proteins cited; added tags and fusions are not shown. Lines headed by an entry give the natural chain unless they say otherwise; changes in a name come on top.
UniProt Q9NP72: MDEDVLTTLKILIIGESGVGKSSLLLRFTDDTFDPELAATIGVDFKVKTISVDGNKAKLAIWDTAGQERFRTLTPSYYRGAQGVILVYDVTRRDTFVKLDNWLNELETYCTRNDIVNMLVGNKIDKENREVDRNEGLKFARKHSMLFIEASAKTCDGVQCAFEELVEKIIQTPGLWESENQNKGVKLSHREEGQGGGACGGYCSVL

Some test systems named below: QARS (human); QPCTL (human); RAB11B (human); RAB14 (human); RAB1B (human); RAB27A (human); RAB2A (human).
Common to all, as to experiment: protein microarray (ProtoArray v5.0), streptavidin-Alexa Fluor 647
Common to all, as to details: 3'-biotin; 20 mM Tris (pH 7.5), 5 mM MgCl2, 100 mM KCl, 0.1% Tween-20, A/T-rich and random oligonucleotide blockers; temperature not stated; high values mean tight binding

Experiment [1] relates to Protein tyrosine phosphatase-like protein PTPLAD1 (human).
Experiment [2] relates to Purine nucleoside phosphorylase (human).
Experiment [3] relates to Putative ATP-dependent Clp protease proteolytic subunit, mitochondrial (human).
The subject of experiment [4] is Putative DAP-2 like protein C8orf68 (human).
Experiment [5] has as its system Putative adenylate kinase 7 (human).
Experiment [6] concerns Putative elongation factor 1-delta-like protein (human).
In experiment [7] the test system is Putative protein phosphatase inhibitor 2-like protein 3 (human).
For experiment [8], the system named is Putative uncharacterized protein C3orf56 (human).
Experiment [9] relates to Putative uncharacterized protein FLJ45256 (human).
Experiment [10] has as its system Putative zinc-alpha-2-glycoprotein-like 1 (human).
Experiment [11] concerns Pyruvate kinase isozymes R/L (human).
Experiment [12] has as its system Quinone oxidoreductase (human).
The target of a further experiment is RAB18 (UniProt Q9NP72).

Some of the results follow. For some assays here: Construct or isoform of the protein are uncertain.

Consider “GGGAGGCTGAGGCAGG [G4-1 biotinylated (PQS2)]”, for which the binding signal in experiment [1] is -0.282 z-score; in experiment [2], -0.348 z-score; in experiment [3], -0.346 z-score; in [4], -0.24 z-score; in [5] it was -0.365 z-score; in [6], -0.337 z-score. In addition, the binding signal in [7] is -0.355 z-score; in experiment [8], -0.283 z-score; in experiment [9], -0.325 z-score; in experiment [10] it was -0.285 z-score; in experiment [11], -0.342 z-score; with QARS (human), -0.33 z-score. Besides, the binding signal in the experiment on QPCTL (human) was -0.229 z-score; in experiment [12] it was -0.274 z-score; in the experiment with RAB11B (human) it was -0.264 z-score; in the experiment on RAB14 (human) it was -0.312 z-score; with RAB18, -0.329 z-score; with RAB1B (human) it was -0.354 z-score. Besides, the binding signal in the experiment with RAB27A (human) is -0.356 z-score; in the experiment with RAB2A (human), -0.335 z-score.
